Entries after “also recorded” stand apart in the source; their conditions may differ. Not every detail of the peptide structures is certain; ends, links or a residue may be inferred. Ends that are not written are not given here.
How the values were obtained:
TLR-4 = target: T1, TLR-4 (Homo sapiens, UniProt O00206); test: NF-κB activation (SEAP reporter) in HEK-BLUE-4 cells; assay type: cell-based; conditions: peptide 1, 5 and 10 μg/ml
T1 construct: host or cells: HEK-BLUE-4 (transgenic HEK293)
Procedure: FIG. 2—LPS peptide mimics activate NF-κB in HEK-BLUE™-4. LPS peptide mimics were dissolved in endotoxin free water and added to 96-well plates at three concentrations; 1 μg/ml (black bar), 5 μg/ml (gray bar), and 10 μg/ml (white bar). HEK-BLUE™4 were then added to each well at a concentration of 5×10^4 cells per well in complete media. The supernatant was then harvested after 24 h and assayed for alkaline phosphatase secretion indicating activation of NF-κB. NF-κB activation is represented in FIG. 2A for peptides RS01-RS07 and in FIG. 2B for peptides RS08-RS12. LPS was used as a positive control in assaying all peptides for NF-κB activation. Absorbance was taken at 630 nm. Each experiment was repeated three times with similar results observed. […]
The twelve peptides were assayed for their ability to bind to TLR-4 and activate NF-κB using a transgenic HEK293 cell line known as HEK-BLUE™-4. […] Therefore, NF-κB activation leads to SEAP secretion, which is detected by an alkaline phosphatase substrate in cell culture media.
The LPS peptide mimics were dissolved in endotoxin free water (HyClone) at a concentration of 1 μg/ml with the exception of peptide 4 which was dissolved in a solution of 1% DMSO made in endotoxin free water at 1 μg/ml concentration. […] After a noticeable color change, the absorbance was taken at 630 nm using the microplate reader (Bio-Rad). […]

Protein sequences, listed by entry. Tags and fused reporters are not part of them. Residues count along the entry.
UniProt O00206, 24-839: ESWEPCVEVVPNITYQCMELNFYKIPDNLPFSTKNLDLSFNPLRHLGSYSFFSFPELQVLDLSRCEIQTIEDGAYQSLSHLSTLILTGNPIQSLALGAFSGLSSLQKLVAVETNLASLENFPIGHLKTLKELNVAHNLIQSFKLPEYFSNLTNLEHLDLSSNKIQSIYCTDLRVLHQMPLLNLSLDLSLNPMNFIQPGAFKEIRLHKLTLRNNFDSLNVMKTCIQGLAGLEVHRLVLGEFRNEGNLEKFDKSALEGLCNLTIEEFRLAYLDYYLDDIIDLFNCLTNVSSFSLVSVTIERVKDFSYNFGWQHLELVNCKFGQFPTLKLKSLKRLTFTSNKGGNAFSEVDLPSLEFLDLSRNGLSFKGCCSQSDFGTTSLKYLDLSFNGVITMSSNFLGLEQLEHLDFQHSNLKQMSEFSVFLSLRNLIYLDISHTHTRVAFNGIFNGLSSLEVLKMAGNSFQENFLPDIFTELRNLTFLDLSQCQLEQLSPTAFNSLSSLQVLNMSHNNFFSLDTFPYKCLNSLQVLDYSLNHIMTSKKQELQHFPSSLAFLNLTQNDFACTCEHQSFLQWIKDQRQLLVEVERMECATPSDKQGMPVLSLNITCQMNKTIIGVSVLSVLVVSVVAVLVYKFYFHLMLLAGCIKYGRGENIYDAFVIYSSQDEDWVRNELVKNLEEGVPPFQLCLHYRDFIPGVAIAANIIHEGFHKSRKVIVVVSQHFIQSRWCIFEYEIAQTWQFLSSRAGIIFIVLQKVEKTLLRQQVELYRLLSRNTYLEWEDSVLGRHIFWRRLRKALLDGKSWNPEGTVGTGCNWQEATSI

NF-κB [1] = test: NF-κB nuclear translocation Western blot in HEK-BLUE-4; assay type: cell-based; conditions: 5 μg/ml, 15-120 min
NF-κB [2] = test: Fluorescence microscopy of NF-κB nuclear translocation in RAW264.7; assay type: cell-based; conditions: 5 μg/ml, 30 min
Procedure: FIG. 4—Fluorescence microscopy of NF-κB nuclear translocation. RAW264.7 macrophages were seeded in 8 well chamber slides at a density of 2×10^4 cells per well and stimulated with 5 μg/ml of either RS01 or RS09. After 30 min incubation, cells were fixed (4% para-formaldehyde), permeabilized (0.2% TRITON® X-100), blocked (10% goat serum/1% BSA), and incubated with anti-NF-κB followed by DAPI staining of nuclei. The stained cells were visualized using the Axiovert 200 M microscope with a 40× magnification. NF-KB (green) was more diffusely spread throughout the cytoplasm in control cells but appeared more circular in RS01, RS09, and LPS treated cells.
HEK-BLUE™-4 and RAW264.7 cells were seeded in 8-chamber slides (BD Biosciences, Bedford, Mass.) at a density of 2×10^4 cells per well. Cells were allowed to adhere at 37° C. over night after which the cells were stimulated with LPS peptide mimics at various time points and subsequently processed for immunofluorescence. The cells were fixed with a 4% paraformaldehyde/PBS solution, followed by permeabilization with 0.2% TRITON® X-100, and blocked using a solution of 0.1% TRITON® X-100, 1% BSA, and 10% goat serum. […]

RAW264.7 cells = test: Inflammatory cytokine secretion from RAW264.7 macrophages (antibody array); assay type: cell-based, mouse; conditions: 24 h
Procedure: FIG. 5—RAW264.7 secretes inflammatory cytokines in response to RS01 and RS09. RAW264.7 cells were seeded at a density of 1×10^6 cells per well of a six well plate followed by addition of either […] (FIG. 5A) or RS09 (FIG. 5B) and incubated for 24 h after which the culture media was collected. LPS was used as a positive control for both RS01 and RS09. Culture media was then analyzed for specific cytokines using an antibody array kit. […] Each cytokine is represented as an IDV value which was calculated by comparing the density of each spot with respect to the density of the internal positive controls. The antibody array represents a qualitative comparison of each cytokine and is […]. Each experiment was repeated three times with similar results observed. […]
RAW264. […] The blots were then developed using ECL (Pierce) and detected on HyBlot CL™ autoradiography film (Denville Scientific). […]
Although the values obtained for each cytokine are not quantitative but rather qualitative, they do show an increase in release of inflammatory cytokines. These values were calculated and presented as IDV, which is the density of each spot compared to the density of the internal positive controls present on each membrane. Values for the various cytokines and chemokines detected are presented in FIG. 5A for RS01 and FIG. 5B for RS09. […]

NF-κB [3] = test: NF-κB nuclear translocation Western blot in RAW264.7; assay type: cell-based
NF-κB [4] = test: NF-κB nuclear translocation Western blot in non-TLR-4 expressing HEK293 (negative control cells); assay type: cell-based; conditions: HEK293 lacking TLR-4
Procedure: FIG. 3—LPS peptide mimics lead to NF-κB nuclear translocation. Nuclear translocation studies of NF-κB were performed by Western blot analysis on both RAW264.7 (FIG. 3A), HEK-BLUE™-4 (FIG. 3B), and HEK293 (FIG. 3C) cells. Cells were stimulated with peptide, either RS01 or RS09, at a concentration of 5 μg/ml per 5×10^4 cells at various time points (15, 30, 60, and 120 min) Nuclear protein fractions were assayed for NF-κB while cytoplasmic proteins fractions were assayed for both NF-κB and IκB-α. HDAC was used as a nuclear protein loading control and actin was used as a cytoplasmic protein loading control.
For NF-KB nuclear translocation western blots, cytoplasmic and nuclear protein extracts were prepared from HEK-BLUE™-4, HEK293, and RAW264.7 cells (2×10^6 cells) using NE-PER, nuclear and cytoplasmic extraction reagent kit (PIERCE, Rockford, Ill.). The manufacturer's protocol was followed to separate cytoplasmic and nuclear fractions. Nuclear and cytoplasmic lysates (10 μg protein) were subjected to 12% SDS-PAGE under reducing conditions (presence of β-mercaptoethanol). […] After four washes with TBST and one wash with TBS, membranes were developed by ECL (Pierce) and detected on HyBlot CL™ autoradiography film (Denville Scientific, Inc, Metuchen, N.J.). […]

QEINSSY [RS01, Gln Glu Ile Asn Ser Ser Tyr]
TLR-4 stimulation and NF-κB activation (alkaline phosphatase secretion, absorbance 630 nm) (TLR-4): considered as TLR-4 stimulating and hence activators of NF-κB | cytoplasmic IκB-α and NF-κB (NF-κB [1]): simultaneous decrease of cytoplasmic IKB-a and NF-KB | nuclear localization of NF-κB (NF-κB [1]): increased nuclear localization of NF-κB | NF-κB nuclear localization (immunofluorescence, DAPI merge) (NF-κB [2]): nuclear localization of NF-κB was observed | secretion of inflammatory cytokines and chemokines (IDV, qualitative) (RAW264.7 cells): capable of inducing secretion of inflammatory cytokines and chemokines | nuclear NF-κB (NF-κB [3]; 5 μg/ml, 15, 30, 60, 120 min): increased during the indicated times of 15, 30, 60, and 120 min | cytoplasmic NF-κB (NF-κB [3]; 5 μg/ml, 15-120 min): Concentrations of cytoplasmic NF-κB also decrease | degradation of cytoplasmic IκB-α (NF-κB [3]; 5 μg/ml, 15-120 min): as nuclear translocation of NF-κB increases over time, so too does the degradation of IKB-α | NF-κB nuclear translocation (NF-κB [4]): do not activate the non-TLR-4 expressing HEK293 cells; also recorded: did not result in nuclear translocation
